This note sets out measurements from publication PMC9431697.

These are yes or no findings as the source states them, for the method shown. Binding seen in cells or lysates may run through a third protein. Some entries that bind do so weakly or less than the wild type.

Assay [1] has as its target transcriptional factor CREB, endogenous in mouse hippocampus (mouse (endogenous in hippocampal tissue)) (UniProt Q01147). Put plainly: co-IP; mouse hippocampal tissue homogenised in RIPA lysis buffer without SDS; about 1 mg clarified lysate with protein A/G agarose beads and antibody or IgG control (4 ug) at 4°C overnight; immunoblot; WT tissue (Figure 7F, 7J), +/+ and Phf21b Δ4/Δ4 tissue (Figure 7K).

Assay [2] concerns the target p-CREB (S133), CREB phosphorylated at the serine residue 133, endogenous in mouse hippocampus (mouse (endogenous in hippocampal tissue)) (UniProt Q01147). Described as above.

B1: PHF21B (PHD finger protein 21B), endogenous in mouse hippocampus (protein, UniProt Q8C966 1-487)
chain: MELQSRSEALAVELARHQNGDLKKQLHERQPRIAALSDKQALGSTTAVPVTGPQVSSLQRLAGQGAAVLPQVRPKTLIPDSLPVTPGRDRPPKQPPTFQKATVVSIKNPSPALPTANNTVNHVPTPSSQTQALTEPTAITSPLSSAGVAYAIISTSPSNAATITPSTTVPVASDGIKVQPLLISADKKVIIIQPQVKTQPESSAEPEPPTEEPSQGAQATKEDQPPSKENPEKIAFMVALGLVTTEHLEEIQSKRQERKRRSTANPAYSGFLETERKRLASSYLHNPLFLTARANEDPCWKGEITHDEFCAACKRGASLQPCGTCSGAYHLSCLDPPLKTPPKGLWVCPKCQRKALKKDEGVPWTGMLAIVHSYVTHKTVKEEEKQKLLQRGSELQSEHQQLEERDRQLASAVKKCLELKTSLLARQRGTQSSLDRIRALLRLIQGEQMLQVAMATTSPTPLLAGPWTKPSTTTTMRTTLQHPQNHN
For the molecule B1, the binding result in assay [1] and in assay [2] was “binds” throughout.
